Data as given in PubChem BioAssay AID720703 (Peter MacCallum Cancer Centre, 2013)

Aim: 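Kinase knock-down screen for links between AT1R and EGFR signalling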 (primary screen)
System: immortalised, SV40-transformed mammary epithelial cells from human, with stable expression of tagged AT1R
Knock-down reagent: siRNA pool against human genes, 40 nM siRNA pool per well
Duration: 72 h from transfection to lysis and read-out
Conditions: angiotensin II stimulation (dose and duration not given); EGFR inhibitor AG1478 also listed
Measured: 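ERK1/2 phosphorylation corrected for confluency, given as a robust z-score, mean over two replicate plates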
Direction: phospho-ERK z-score: higher = more ERK phosphorylation after angiotensin II, relative to plate
Active means: 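The 50 highest-ranked pools, at either end of the score, are marked as chosen for follow-up; the cut-off used is not reported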
Meaning of the calls: active = picked for secondary screen; inactive = not picked
The whole screen tested 714 reagents; below is an unselected part. 50 of them (7%) were called active. 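Chosen pools sit at both extremes, so both low and high scores count as candidates; some pools appear more than once.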 Some reagents were tested in more than one well and are listed for each.

no.	target gene	phospho-ERK z-score, replicate mean	outcome
1	PRPS1L1 (GeneID 221823)	0.9	inactive
2	NME2 (GeneID 4831)	-0.94	inactive
3	NUCKS1 (GeneID 64710)	0.43	inactive
4	PIP5KL1 (GeneID 138429)	-0.38	inactive
5	SCYL3 (GeneID 57147)	-0.3	inactive
6	PHKB (GeneID 5257)	-0.26	inactive
7	CDC42BPB (GeneID 9578)	-0.4	inactive
8	PRAG1 (GeneID 157285)	1.3	inactive
9	CDK20 (GeneID 23552)	-1.17	inactive
10	TPD52L3 (GeneID 89882)	0.2	inactive
11	BUB1 (GeneID 699)	-0.8	inactive
12	BMPR1A (GeneID 657)	3.54	active
13	PRKAB1 (GeneID 5564)	-0.02	inactive
14	TYRO3 (GeneID 7301)	1.48	inactive
15	MAPK8 (GeneID 5599)	-0.59	inactive
16	DAPK1 (GeneID 1612)	-0.71	inactive
17	CDK5 (GeneID 1020)	-1.62	active
18	GNE (GeneID 10020)	1.05	inactive
19	CSNK1G3 (GeneID 1456)	0.22	inactive
20	CALM3 (GeneID 808)	0.08	inactive
21	STK16 (GeneID 8576)	-1.46	active
22	TRIM27 (GeneID 5987)	0.28	inactive
23	PIK3R5 (GeneID 23533)	-0.24	inactive
24	ARAF (GeneID 369)	0.83	inactive
25	SNRK (GeneID 54861)	4.4	active
26	ALK (GeneID 238)	-0.54	inactive
27	INSRR (GeneID 3645)	1.27	inactive
28	PRKAA2 (GeneID 5563)	0.38	inactive
29	TGFBR2 (GeneID 7048)	-0.1	inactive
30	LRRK2 (GeneID 120892)	-0.48	inactive
31	PIM2 (GeneID 11040)	0.04	inactive
32	TRIB2 (GeneID 28951)	-0.65	inactive
33	TRPM6 (GeneID 140803)	0.65	inactive
34	DGUOK (GeneID 1716)	2.83	inactive
35	MAPK10 (GeneID 5602)	-0.1	inactive
36	STK36 (GeneID 27148)	0.57	inactive
37	PFKP (GeneID 5214)	1.34	inactive
38	AK2 (GeneID 204)	0.1	inactive
39	PIP4K2A (GeneID 5305)	0.68	inactive
40	INSR (GeneID 3643)	1.68	inactive
41	ZAP70 (GeneID 7535)	-0.24	inactive
42	RPS6KL1 (GeneID 83694)	0.11	inactive
43	WNK1 (GeneID 65125)	0.16	inactive
44	ADCK1 (GeneID 57143)	-0.25	inactive
45	CLK1 (GeneID 1195)	1.52	inactive
46	PI4K2B (GeneID 55300)	-0.62	inactive
47	SPHK1 (GeneID 8877)	-0.9	inactive
48	PIK3C3 (GeneID 5289)	0.42	inactive
49	COASY (GeneID 80347)	3.8	active
50	PIK3CD (GeneID 5293)	0.5	inactive
51	PRKCZ (GeneID 5590)	-0.55	inactive
52	TNK2 (GeneID 10188)	0.34	inactive
53	NME5 (GeneID 8382)	-0.28	inactive
54	MAST2 (GeneID 23139)	2.96	inactive
55	MTOR (GeneID 2475)	0.21	inactive
56	CDK14 (GeneID 5218)	0.62	inactive
57	PAPSS2 (GeneID 9060)	0.74	inactive
58	CAMKK2 (GeneID 10645)	-0.26	inactive
59	TLK1 (GeneID 9874)	1.89	inactive
60	MUSK (GeneID 4593)	-0.01	inactive
61	RPS6KC1 (GeneID 26750)	-0.88	inactive
62	CSF1R (GeneID 1436)	-0.7	inactive
63	DGKI (GeneID 9162)	-0.18	inactive
64	AKT3 (GeneID 10000)	-1.31	active
65	CLK2 (GeneID 1196)	-0.22	inactive
66	ROR1 (GeneID 4919)	-1.12	inactive
67	PRKACB (GeneID 5567)	0.86	inactive
68	IP6K2 (GeneID 51447)	2.11	inactive
69	ITPK1 (GeneID 3705)	-0.83	inactive
70	RIPK3 (GeneID 11035)	1.58	inactive
71	PRKAR2A (GeneID 5576)	-0.72	inactive
72	MAP3K14 (GeneID 9020)	0.03	inactive
73	PHKG1 (GeneID 5260)	0.64	inactive
74	IP6K1 (GeneID 9807)	0.24	inactive
75	SRPK1 (GeneID 6732)	-0.59	inactive
76	PAK4 (GeneID 10298)	0.1	inactive
77	MAPKAPK3 (GeneID 7867)	1.66	inactive
78	STK35 (GeneID 140901)	-0.35	inactive
79	ALPK3 (GeneID 57538)	-0.64	inactive
80	TSSK6 (GeneID 83983)	5.39	inactive
81	TSSK6 (GeneID 83983)	0.71	inactive
82	RIPK4 (GeneID 54101)	-0.86	inactive
83	ROCK2 (GeneID 9475)	0.23	inactive
84	IRAK4 (GeneID 51135)	-0.05	inactive
85	EIF2AK2 (GeneID 5610)	1.55	inactive
86	PRKAR2B (GeneID 5577)	0.57	inactive
87	BRSK2 (GeneID 9024)	-0.01	inactive
88	AURKA (GeneID 6790)	0.42	inactive
89	TSSK1B (GeneID 83942)	-0.62	inactive
90	TSSK1B (GeneID 83942)	-0.11	inactive

Reprinted from above, 4 entries:
no.	target gene	phospho-ERK z-score, replicate mean	outcome
54	MAST2 (GeneID 23139)	2.96	inactive
55	MTOR (GeneID 2475)	0.21	inactive
56	CDK14 (GeneID 5218)	0.62	inactive
57	PAPSS2 (GeneID 9060)	0.74	inactive
